Measured values from the supplement of paper PMC12067093, “Discovery and optimisation of a covalent ligand for TRIM25 and its application to targeted protein ubiquitination” (Chemical Science, 2025).
This is one part of the list.

Compound: Cc1cc(ccc1-c1ccccc1)C(=O)N1CCCN(CC1)C(=O)CCl [compound 10]
Assay: probe-labelled cysteine peptide fold change vs DMSO (competition) (log2 fold change); higher = less target engagement (more negative = stronger competition)
Conditions: THP-1, incubation time: 4 h
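Also: competitive profiling in live THP-1 cells: cysteine peptides tagged with an iodoacetamide desthiobiotin (IA-DTB) probe, intensity after compound treatment relative to DMSO-treated cells.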

Row | Target | probe-labelled cysteine peptide fold change (10 µM) | probe-labelled cysteine peptide fold change (50 µM)
1 | GNAI2_P04899_112_QLFALSCTAEEQGVLPDDLSGVIR (UniProt P04899) | -0.0471 | -0.343
2 | GMIP_Q9P107_571_CTAEIEHR (UniProt Q9P107) | 0.206 | 0.262
3 | GOLGA4_Q13439_1253_ISHCQHR (UniProt Q13439) | -0.0373 | 0.0512
4 | GMPPA_Q96IJ6_118_DQILAGSPEAFFVLNADVCSDFPLSAMLEAHRR (UniProt Q96IJ6) | 0.59 | 0.328
5 | GMFB_P60983_8_SESLVVCDVAEDLVEK (UniProt P60983) | 0.00338 | -0.022
6 | GPS1_Q13098_67_LQFIADHCPTLR (UniProt Q13098) | -0.0482 | -0.0247
7 | GLYR1_Q49A26_356_CYVDMSTVDADTVTELAQVIVSR (UniProt Q49A26) | 0.772 | 0.446
8 | GNB2_P62879_148+149_ELPGHTGYLSCCR (UniProt P62879) | -0.0994 | -0.832
9 | GOLGB1_Q14789_2664_RIAELEEELVCVQK (UniProt Q14789) | 0.146 | 0.236
10 | GPD1L_Q8N335_9_VCIVGSGNWGSAVAK (UniProt Q8N335) | -0.117 | 0.112
11 | GNE_Q9Y223_520_TPLSDTLHLPVWVDNDGNCAALAER (UniProt Q9Y223) | 0.111 | 0.248
12 | GNB2_P62879_149_ELPGHTGYLSCCR (UniProt P62879) | -0.118 | -0.265
13 | GOLGA2_Q08379_356_CEAPDANQQLQQAMEER (UniProt Q08379) | -0.0844 | 0.167
14 | GMPR2_Q9P2T1_205_TGVGYPQLSAVMECADAAHGLK (UniProt Q9P2T1) | -0.0196 | -0.162

An excerpt taken from the entries so far:
Row | Target | probe-labelled cysteine peptide fold change (10 µM) | probe-labelled cysteine peptide fold change (50 µM)
6 | GPS1_Q13098_67_LQFIADHCPTLR (UniProt Q13098) | -0.0482 | -0.0247
7 | GLYR1_Q49A26_356_CYVDMSTVDADTVTELAQVIVSR (UniProt Q49A26) | 0.772 | 0.446
